# Experimental data: PubChem BioAssay AID652272 (Drosophila RNAi Screening Center, 2013)
# Purpose: 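Genome-wide knock-down search for components of Hedgehog signalling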 (primary screen)
# Cells: Drosophila clone 8 (Cl8) cells
# Knock-down reagent: long dsRNA against Drosophila genes
# Measured: 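Firefly light from a Hedgehog-responsive ptc promoter reporter and Renilla reference light, both read on a plate reader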
# Direction: firefly Hh reporter signal: higher = more ptc reporter light; Renilla reference signal: higher = more Renilla control light
# Rule for the call: 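Called a hit if the two-replicate mean z-score lies below -2 or above +3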
# Meaning of the calls: active = hit: reporter lowered or raised; inactive = not a hit
# The screen tested about 21,000 reagents; this is an unselected part of those with a known target gene and a result. In the full data, 503 (2.4%) got an active call. 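Raw plate light values, not normalised; calls rest on replicate z-scores that were not deposited; hits include reporter decreases as well as increases.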 Names joined by + are all predicted targets of the reagent. No sequences are given here. The record does not give: the amount of reagent, the time to read-out.
gene,dsRNA,"firefly Hh reporter signal, replicate 1","firefly Hh reporter signal, replicate 2","firefly Hh reporter signal, replicate 3","Renilla reference signal, replicate 1","Renilla reference signal, replicate 2",call
CG33773,DRSC14032,5.72e5,2.43e5,,29369,4714,inactive
sev (sevenless),DRSC20372,82423,1.63e5,,2361,6514,inactive
Gr59f (Gustatory receptor 59f),DRSC04499,67684,52220,,1784,3781,inactive
CG34334,DRSC20643,55168,1.83e5,,1773,7440,inactive
CG18418,DRSC08535,81856,45136,,3867,1974,inactive
CG4854,DRSC15663,4.70e5,1.08e5,,27194,3424,inactive
CG15611,DRSC06563,1.02e5,1.17e5,,4640,4381,inactive
CG15611,DRSC06564,84762,35592,,2554,2720,inactive
Or22a (Odorant receptor 22a),DRSC00764,1.48e5,1.30e5,,3209,2957,inactive
CG3036,DRSC00260,8.13e5,3.13e5,,41505,13240,inactive
CG3036,DRSC00562,49408,96714,,2355,3840,inactive
CG32628 (retired record),DRSC19405,95233,2.84e5,,3000,12834,inactive
CG11779,DRSC14384,1.07e5,45547,,4384,1952,inactive
Dpit47 (DNA polymerase interacting tpr containing protein of 47kD),DRSC04985,70166,38491,,1626,3092,inactive
CG10086,DRSC14183,57463,64673,,3014,2667,inactive
CG9636,DRSC16529,1.01e5,1.02e5,,3991,3930,inactive
InR (Insulin-like receptor),DRSC16717,7.95e5,1.70e5,,39105,2765,inactive
Muc11A (Mucin 11A),DRSC19498,1.11e5,7.50e5,3.06e5,3127,6439,inactive
CanB2 (Calcineurin B2),DRSC07355,7.21e5,1.30e5,,5665,5665,inactive
Pef (Peflin),DRSC06695,94088,59266,,4044,2256,inactive
CG3611,DRSC04395,66630,41667,,1639,1505,inactive
CG6421,DRSC07420,78996,62449,,2166,4771,inactive
CG11381,DRSC17780,43370,1.06e5,,1339,4528,inactive
CG6333,DRSC10626,2.03e5,,,7333,5516,inactive
sbm (sobremesa),DRSC20185,86992,1.67e5,,3088,6566,inactive
nes (nessy),DRSC11375,71995,1.10e5,,2544,2631,inactive
bys (by S6),DRSC18748,71240,67512,,2252,2199,inactive
GV1,DRSC08228,82103,44989,,2960,3760,inactive
Ypel (Yippee-like),DRSC17996,85052,60616,,1317,1386,inactive
CG5849,DRSC15893,5.82e5,1.62e5,,26096,2816,inactive
CG9286,DRSC16467,70422,66380,,3760,3204,inactive
CG43307,DRSC00893,7.95e5,2.63e5,,42198,11947,inactive
CG9452,DRSC11075,1.12e5,87650,,3949,2448,inactive
CG18233,DRSC10308,73463,,,5091,2264,inactive
Zaf1 (ZAD and Architectural Function 1),DRSC16121,73655,1.12e5,,2192,6020,inactive
Gr47b (Gustatory receptor 47b),DRSC05275,1.06e5,2.40e5,,2944,8836,inactive
mh (maternal haploid),DRSC20168,47040,1.59e5,,953,6538,inactive
CG31342,DRSC15349,1.67e5,86512,,6669,3748,inactive
CG31342,DRSC16246,70656,91784,,1584,2314,inactive

Next part; the last 8 above are carried over.
gene,dsRNA,"firefly Hh reporter signal, replicate 1","firefly Hh reporter signal, replicate 2","firefly Hh reporter signal, replicate 3","Renilla reference signal, replicate 1","Renilla reference signal, replicate 2",call
CG43307,DRSC00893,7.95e5,2.63e5,,42198,11947,inactive
CG9452,DRSC11075,1.12e5,87650,,3949,2448,inactive
CG18233,DRSC10308,73463,,,5091,2264,inactive
Zaf1 (ZAD and Architectural Function 1),DRSC16121,73655,1.12e5,,2192,6020,inactive
Gr47b (Gustatory receptor 47b),DRSC05275,1.06e5,2.40e5,,2944,8836,inactive
mh (maternal haploid),DRSC20168,47040,1.59e5,,953,6538,inactive
CG31342,DRSC15349,1.67e5,86512,,6669,3748,inactive
CG31342,DRSC16246,70656,91784,,1584,2314,inactive
TTLL4A (Tubulin tyrosine ligase-like 4A),DRSC02528,1.12e5,1.35e5,,4354,5251,inactive
CG43089,DRSC08060,1.01e5,1.93e5,,2869,7655,inactive
Atg3 (Autophagy-related 3),DRSC10736,1.39e5,7.66e5,1.24e5,5648,40643,inactive
Ugt37E1 (UDP-glycosyltransferase family 37 member E1),DRSC02248,1.08e5,59968,,2924,6153,inactive
knrl (knirps-like),DRSC11892,98285,73281,,4553,3568,inactive
CG33791 + CG12105 + CG18170,DRSC08387,95969,1.11e5,,5092,4667,inactive
CG43366,DRSC04857,1.01e5,74416,,2358,7922,inactive
CG43366,DRSC04864,78853,65398,,2083,6064,inactive
CG13064,DRSC09947,1.60e5,,,6417,4523,inactive
CG4950,DRSC10463,1.22e5,,,2545,3827,inactive
Chc (Clathrin heavy chain),DRSC20229,89947,78861,,2393,2050,inactive
CG14840,DRSC14964,82112,1.05e5,,678,2246,inactive
CG12170,DRSC12199,1.48e5,8.61e5,1.14e5,5763,50964,inactive
loopin-1,DRSC06888,85760,50608,,4010,1989,inactive
CG7988,DRSC16358,6.83e5,92853,,32101,2285,inactive
fidipidine,DRSC07618,77787,43273,,1827,3520,inactive
TyrR (Tyramine receptor),DRSC13259,51510,2.44e5,,10489,5800,inactive
TyrR (Tyramine receptor),DRSC16242,5.53e5,1.39e5,,23297,3507,inactive
Prosbeta3 (Proteasome beta3 subunit),DRSC16801,49456,49770,,4800,4050,active
CG32196,DRSC09548,1.67e5,,,3553,,inactive
CG5653,DRSC10534,53201,56116,,6343,3702,inactive
hdm (hold'em),DRSC18013,69795,1.78e5,,1767,6740,inactive
sens-2 (senseless-2),DRSC02136,1.43e5,71361,,3594,7488,inactive
sens-2 (senseless-2),DRSC02613,1.33e5,67030,,3510,5712,inactive
CG12307,DRSC02159,75821,74585,,1312,6135,inactive
lectin-37Db,DRSC03279,1.02e5,47880,,2836,4629,inactive
polybromo,DRSC14307,1.11e5,61163,,4385,2620,inactive
tbrd-1,DRSC14601,3.80e5,77611,,19218,2726,inactive
CG33627,DRSC05343,1.12e5,2.01e5,,3296,9996,inactive
M7BP (Myosin-7a binding protein),DRSC05053,89812,2.13e5,,2352,8843,inactive
M7BP (Myosin-7a binding protein),DRSC05054,1.24e5,2.58e5,,3696,9655,inactive
M7BP (Myosin-7a binding protein),DRSC05932,94818,53189,,3745,1864,inactive
M7BP (Myosin-7a binding protein),DRSC06701,93403,56227,,2336,4177,inactive
M7BP (Myosin-7a binding protein),DRSC06816,1.13e5,73226,,3018,5834,inactive
